Experiment [1] deals with T1, BTN1A1-Flag (human) (UniProt Q13410).
T1 sequence: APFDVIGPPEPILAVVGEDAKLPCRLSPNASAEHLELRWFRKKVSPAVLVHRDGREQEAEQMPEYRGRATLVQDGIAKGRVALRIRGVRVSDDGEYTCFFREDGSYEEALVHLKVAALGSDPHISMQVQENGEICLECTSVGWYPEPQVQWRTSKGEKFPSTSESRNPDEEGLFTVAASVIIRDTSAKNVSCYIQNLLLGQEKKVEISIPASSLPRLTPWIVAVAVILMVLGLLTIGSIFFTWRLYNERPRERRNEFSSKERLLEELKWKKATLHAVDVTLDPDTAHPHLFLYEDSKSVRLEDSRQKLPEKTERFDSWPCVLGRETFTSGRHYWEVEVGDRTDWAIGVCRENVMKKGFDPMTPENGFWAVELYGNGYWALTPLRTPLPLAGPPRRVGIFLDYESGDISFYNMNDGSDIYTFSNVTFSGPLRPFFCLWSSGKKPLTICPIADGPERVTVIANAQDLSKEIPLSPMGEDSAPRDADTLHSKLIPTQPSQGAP
The experiment is described as follows: co-immunoprecipitation from HEK293T cells, both directions (Nrp-2 data not shown in FIG. 5).

The chains behind the UniProt entries cited, without tags or fusion partners. Where a name states a change or a piece, a line headed by the entry shows the natural chain unless it says otherwise.
UniProt Q13410: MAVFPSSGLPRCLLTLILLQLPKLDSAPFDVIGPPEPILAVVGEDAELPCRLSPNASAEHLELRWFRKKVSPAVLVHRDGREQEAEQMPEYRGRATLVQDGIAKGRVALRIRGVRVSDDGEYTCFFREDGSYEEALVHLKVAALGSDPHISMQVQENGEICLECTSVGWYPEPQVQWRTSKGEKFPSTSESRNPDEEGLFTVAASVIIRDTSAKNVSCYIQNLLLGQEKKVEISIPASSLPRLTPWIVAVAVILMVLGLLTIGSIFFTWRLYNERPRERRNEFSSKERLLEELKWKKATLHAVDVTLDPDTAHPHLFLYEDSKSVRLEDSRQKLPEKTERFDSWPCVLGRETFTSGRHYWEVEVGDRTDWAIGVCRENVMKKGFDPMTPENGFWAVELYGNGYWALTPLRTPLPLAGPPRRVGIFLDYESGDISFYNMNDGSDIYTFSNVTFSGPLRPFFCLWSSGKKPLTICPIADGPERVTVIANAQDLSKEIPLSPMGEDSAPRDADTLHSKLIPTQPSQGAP
UniProt O60462: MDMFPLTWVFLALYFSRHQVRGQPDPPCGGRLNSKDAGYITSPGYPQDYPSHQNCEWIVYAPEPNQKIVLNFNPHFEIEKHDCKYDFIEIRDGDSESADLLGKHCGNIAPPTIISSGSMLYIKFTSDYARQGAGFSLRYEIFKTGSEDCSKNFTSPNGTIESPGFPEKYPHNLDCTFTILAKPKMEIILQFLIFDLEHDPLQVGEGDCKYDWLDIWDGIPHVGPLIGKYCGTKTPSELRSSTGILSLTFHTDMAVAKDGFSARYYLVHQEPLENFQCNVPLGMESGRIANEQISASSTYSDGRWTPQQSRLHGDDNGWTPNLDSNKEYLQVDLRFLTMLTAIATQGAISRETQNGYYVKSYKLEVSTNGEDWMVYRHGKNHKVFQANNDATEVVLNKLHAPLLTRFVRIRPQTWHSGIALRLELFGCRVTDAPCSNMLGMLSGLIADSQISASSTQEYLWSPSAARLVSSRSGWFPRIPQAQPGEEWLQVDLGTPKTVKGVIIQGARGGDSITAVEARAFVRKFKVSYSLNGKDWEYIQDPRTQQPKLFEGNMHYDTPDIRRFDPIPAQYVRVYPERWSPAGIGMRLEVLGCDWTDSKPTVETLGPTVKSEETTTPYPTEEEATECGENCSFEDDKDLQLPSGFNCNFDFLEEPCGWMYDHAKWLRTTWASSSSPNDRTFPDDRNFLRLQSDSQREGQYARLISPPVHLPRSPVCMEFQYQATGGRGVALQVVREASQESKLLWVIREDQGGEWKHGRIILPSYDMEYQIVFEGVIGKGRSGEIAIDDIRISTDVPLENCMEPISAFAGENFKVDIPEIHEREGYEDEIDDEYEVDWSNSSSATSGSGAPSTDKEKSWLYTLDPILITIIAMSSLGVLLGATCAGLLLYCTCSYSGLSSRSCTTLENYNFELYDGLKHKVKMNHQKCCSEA
UniProt Q7Z6A9: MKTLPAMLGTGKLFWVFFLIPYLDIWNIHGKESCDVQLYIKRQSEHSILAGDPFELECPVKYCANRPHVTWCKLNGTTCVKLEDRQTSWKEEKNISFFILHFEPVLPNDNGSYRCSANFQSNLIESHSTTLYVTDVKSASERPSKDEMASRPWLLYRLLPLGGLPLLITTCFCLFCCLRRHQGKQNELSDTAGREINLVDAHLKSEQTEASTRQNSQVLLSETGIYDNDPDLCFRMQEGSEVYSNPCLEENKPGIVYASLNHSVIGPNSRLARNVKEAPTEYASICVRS
UniProt P09382: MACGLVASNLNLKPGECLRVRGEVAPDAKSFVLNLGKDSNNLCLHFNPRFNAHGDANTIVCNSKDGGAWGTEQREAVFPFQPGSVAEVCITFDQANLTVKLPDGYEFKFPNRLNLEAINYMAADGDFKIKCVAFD

A further experiment deals with BTN1A1-ECD-Fc (human). The experiment is described as follows: SPR (Biacore), BTN1A1-Fc captured on protein A-coated chip, BTLA at 0.4-6.4 µM, dose-dependent negative signal.
The target of experiment [2] is T1, BTN1A1-Flag (human). The experiment is described as follows: co-immunoprecipitation, legend of FIGS. 2A-C.
For experiment [3], the target named is T1, BTN1A1-Flag (human). Kind of experiment: co-immunoprecipitation from HEK293T cell lysates, both directions.
The target of experiment [4] is T1, BTN1A1-Flag (human). The experiment is described as follows: co-immunoprecipitation, title of FIG. 5.
The target in experiment [5] is T1, BTN1A1-Flag (human). The experiment is described as follows: co-immunoprecipitation from HEK293T cells, both directions.

Results are given in words; binding and its absence hold for the method and conditions named. For part of these data: Binding seen in cells or lysates may run through a third protein. Some binding calls cover weakened binding; strength is not graded here. For part of these data: Tags and fused reporters may be left off the sequences shown.

With “Nrp-2-Myc (from UniProt O60462 21-931) (receptor)”, in the experiment with BTN1A1-Flag (human) [1], the binding entry is on record as “binds”.

For the substance “BTLA-His (from UniProt Q7Z6A9 31-157) (receptor)”, in the experiment with BTN1A1-ECD-Fc (human), the binding entry is recorded as “binds”.

Consider “Myc- and Flag-double tagged Gal-1 (from UniProt P09382 1-135) (ligand)”, for which the binding entry with BTN1A1-Flag (human) [2] and in the experiment with BTN1A1-Flag (human) [3] was “binds” each time.

With “BTLA-Myc (from UniProt Q7Z6A9 31-289) (receptor)”, the binding entry in the experiment with BTN1A1-Flag (human) [4] and with BTN1A1-Flag (human) [5] was “binds” throughout.
